Data as given in PubChem BioAssay AID652272 (Drosophila RNAi Screening Center, 2013)
Test: 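Genome-wide knock-down search for components of Hedgehog signalling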 (primary screen). Cell system: Drosophila clone 8 (Cl8) cells. Knock-down reagent: long dsRNA against Drosophila genes. Read-out: 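Plate reader light from a firefly reporter under a ptc promoter fragment that responds to Hedgehog, with Renilla light as transfection reference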. Scale: firefly Hh reporter signal: higher = more ptc reporter light; Renilla reference signal: higher = more Renilla control light. Hit rule: 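Called a hit if the two-replicate mean z-score lies below -2 or above +3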. Calls: active = hit: reporter lowered or raised; inactive = not a hit.
In all, the deposit lists about 21,000 reagents; below is an unselected part of those that have a named target and a result. In the full data, 503 (2.4%) were called active. 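Raw plate light values, not normalised; calls rest on replicate z-scores that were not deposited; hits include reporter decreases as well as increases.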 Unmarked entries are inactive. Names joined by + are all predicted targets of the reagent. Reagent sequences are not shown. The record does not give: the amount of reagent, the time to read-out.

The opening 3 records, to show the layout:
| target gene | dsRNA | firefly Hh reporter signal, replicate 1 | firefly Hh reporter signal, replicate 2 | firefly Hh reporter signal, replicate 3 | Renilla reference signal, replicate 1 | Renilla reference signal, replicate 2 |
| --- | --- | --- | --- | --- | --- | --- |
| CG42726 + CG42727 | DRSC14485 | 56854 | 1.03e5 | – | 2464 | 3897 |
| lncRNA:CR43302 (GeneID 12798065) | DRSC12668 | 1.52e5 | – | – | 3616 | – |
| EMC8-9 (GeneID 37635) | DRSC04380 | 80070 | 37448 | – | 2691 | 1203 |

Results, from the first entry:
| target gene | dsRNA | firefly Hh reporter signal, replicate 1 | firefly Hh reporter signal, replicate 2 | firefly Hh reporter signal, replicate 3 | Renilla reference signal, replicate 1 | Renilla reference signal, replicate 2 |
| --- | --- | --- | --- | --- | --- | --- |
| CG42726 + CG42727 | DRSC14485 | 56854 | 1.03e5 | – | 2464 | 3897 |
| lncRNA:CR43302 (GeneID 12798065) | DRSC12668 | 1.52e5 | – | – | 3616 | – |
| EMC8-9 (GeneID 37635) | DRSC04380 | 80070 | 37448 | – | 2691 | 1203 |
| Cyp4d2 (GeneID 31192) | DRSC18458 | 1.07e5 | 88483 | – | 2480 | 2771 |
| CG8642 (GeneID 35845) | DRSC07228 | 94341 | 47196 | – | 2427 | 4152 |
| Lgr1 (GeneID 42133) | DRSC16675 | 4.89e5 | 1.18e5 | – | 22240 | 3273 |
| yellow-e (GeneID 41653) | DRSC12966 | 52224 | 3.44e5 | – | 10621 | 7760 |
| yellow-e (GeneID 41653) | DRSC16563 | 1.03e5 | 91520 | – | 3575 | 2458 |
| CG13575 (GeneID 37883) | DRSC04211 | 1.06e5 | 86453 | – | 2666 | 7660 |
| CG4615 (GeneID 31656) | DRSC17491 | 3.86e5 | 1.62e5 | – | 16704 | 2547 |
| CG4615 (GeneID 31656) | DRSC18376 | 55561 | 47072 | – | 1832 | 1485 |
| Polr1B (GeneID 33210) | DRSC00780 | 61428 | 43469 | – | 3362 | 2733 |
| BtbVII (GeneID 38376) | DRSC08151 | 52376 | 20739 | – | 1271 | 106 |
| BtbVII (GeneID 38376) | DRSC08415 | 1.42e5 | 1.14e5 | – | 5067 | 4528 |
| nito (GeneID 35756) | DRSC05943 | 46218 | 32379 | – | 2378 | 1504 |
| mil (GeneID 43343) | DRSC15696 | 1.29e5 | 1.10e5 | – | 4983 | 3524 |
| Arf1 (GeneID 40506) | DRSC11606 | 95648 | 1.16e5 | – | 5142 | 5072 |
| CG42288 (GeneID 36559) | DRSC06381 | 77547 | 78308 | – | 2262 | 5056 |
| CG9801 (GeneID 41044) | DRSC16568 | 85160 | 55253 | – | 3520 | 2348 |
| CG3337 (GeneID 42519) | DRSC15478 | 4.23e5 | 93357 | – | 4417 | 4417 |
| CG6656 (GeneID 42576) | DRSC16085 | 1.38e5 | 81944 | – | 5063 | 3265 |
| Rdl (GeneID 39054) | DRSC08967 | 1.58e5 | 2.65e5 | – | 4587 | 10291 |
| Rdl (GeneID 39054) | DRSC11264 | 1.46e5 | 65764 | – | 5693 | 2688 |
| Jon74E (GeneID 39959) | DRSC10617 | 1.13e5 | – | – | 1825 | 3361 |
| Acbp3 (GeneID 38783) | DRSC11022 | 82535 | 68684 | – | 7063 | 4320 |
| pins (GeneID 53569) | DRSC17043 | 93527 | 70832 | – | 2256 | 1924 |
| CG15529 (GeneID 43584) | DRSC15066 | 1.02e5 | 69152 | – | 4406 | 641 |
| Septin2 (GeneID 42438) | DRSC16855 | 1.11e5 | 1.21e5 | – | 4576 | 4327 |
| CG6980 (GeneID 42955) | DRSC16162 | 1.31e5 | 72248 | – | 5177 | 2995 |
| apt (GeneID 37734) | DRSC04671 | 1.18e5 | 57984 | – | 3347 | 1277 |
| CG12213 (GeneID 41447) | DRSC14478 | 1.56e5 | 8.95e5 | 1.64e5 | 5939 | 50177 |
| RhoGEF64C (GeneID 38578) | DRSC08318 | 1.23e5 | 61526 | – | 4647 | 2530 |
| RhoGEF64C (GeneID 38578) | DRSC08319 | 86753 | 50871 | – | 6950 | 2953 |
| CG9698 (GeneID 43629) | DRSC16539 | 45132 | 90552 | – | 1360 | 2042 |
| Pak (GeneID 44039) | DRSC12602 | 95996 | 56560 | – | 3756 | 2066 |
| spn-F (GeneID 43700) | DRSC14475 | 38049 | 47080 | – | 1066 | 1681 |
| Gss1 + Gss2 | DRSC20008 | 1.41e5 | 2.92e5 | – | 4710 | 13274 |
| Ak3 (GeneID 41318) | DRSC16075 | 58461 | 87138 | – | 1808 | 2336 |
| mRpS33 (GeneID 41991) | DRSC14239 | 1.30e5 | 1.11e5 | – | 2683 | 485 |
